According to patent US20220324964A1 (GENERAL HOSPITAL, published 2022):

Assays:
[1] = molecular target: T1, soluble TACI protein, fluorescently labeled (UniProt O14836 1-165, limits assumed, fluorescent label (not specified)); experiment: flow cytometry, fluorescent soluble TACI titrated 0.01 to 1000 nM on CAR T cells, MFI relative to untransduced cells, N=3
T1 construct: Labeled soluble protein used to stain CAR T cells in flow cytometry; also called sTACI; fluorescent TACI
T1 sequence (looked up): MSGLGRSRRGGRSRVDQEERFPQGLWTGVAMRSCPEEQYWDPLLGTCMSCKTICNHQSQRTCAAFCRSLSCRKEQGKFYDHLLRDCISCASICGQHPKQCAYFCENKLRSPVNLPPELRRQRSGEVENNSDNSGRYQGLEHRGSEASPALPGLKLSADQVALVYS
Description: (§1) FIGS. 25A-25B show measurements of binding of soluble TACI protein to untransduced T cells, and to T cells expressing anti-TACI H-L, anti-TACI L-H, or anti-BCMA. Cells were incubated with fluorescent soluble TACI protein at various concentrations, after which fluorescence of the cells was measured using flow cytometry, represented as percentage of cells positive for TACI (FIG. 25A) or as median fluorescence intensity (MFI) relative to signal measured in untransduced cells (FIG. 25B).
(§2) To evaluate the expression, binding efficacy, and binding specificity of anti-TACI CARs, normal donor T cells were transduced with anti-TACI H-L, anti-TACI L-H, or anti-BCMA and transduction efficiency was evaluated by measuring the percentage of each T cell population positive for mCherry expression by flow cytometry. […] To compare binding efficiency and specificity of different CARs, T cells expressing each CAR construct were incubated with fluorescently-labeled soluble TACI and analyzed by flow cytometry.

[2] = molecular target: T1, soluble TACI protein, fluorescently …; experiment: flow cytometry, fluorescent soluble TACI titrated 0.01 to 1000 nM on CAR T cells, percentage TACI+ (panel Soluble binding of TACI), N=3
Source text: (§3) The top two plots show binding of fluorescent BCMA and the bottom two plots show binding of fluorescent TACI to anti-TACI H-L CAR, anti-TACI L-H CAR, anti-BCMA, anti-TACI/anti-BCMA bispecific CAR, anti-BCMA/anti-TACI bispecific CAR, or untransduced T cells. The two left plots show the percentage of cells positive for BCMA or TACI. The two right plots show median fluorescence intensity for each cell population relative to untransduced cells.
(§4) To test the efficacy of bispecific CAR T cells to bind their respective antigens, T cells were either left untransduced, or transduced with anti-TACI H-L CAR, anti-TACI L-H CAR, anti-BCMA CAR, anti-TACI/anti-BCMA bispecific CAR, or anti-BCMA/anti-TACI bispecific CAR, and were tested for their binding of soluble antigens.

[3] = molecular target: T1, soluble TACI protein, fluorescently …; experiment: flow cytometry, fluorescent soluble TACI titrated 0.01 to 1000 nM on CAR T cells, MFI relative to untransduced cells (panel Amount of soluble TACI binding), N=3
Source text: as §3, §4

[4] = molecular target: T1, soluble TACI protein, fluorescently …; experiment: flow cytometry, fluorescent soluble TACI titrated 0.01 to 1000 nM on CAR T cells, percentage TACI+, N=3
Description: as §1, §2

soluble BCMA, labeled = molecular target: T2, soluble BCMA, labeled (UniProt Q02223 1-54, fluorescent label (not specified)); experiment: flow cytometry, labeled soluble BCMA (8 to 1000 ng) on CAR T cells, gated on live CAR T cells
T2 construct: Labeled soluble protein used to stain CAR T cells in flow cytometry; also called sBCMA; fluorescent BCMA
T2 sequence (looked up): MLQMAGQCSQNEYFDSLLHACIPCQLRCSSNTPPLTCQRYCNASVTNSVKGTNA
Description: The anti-BCMA, anti-TACI (H/L), and anti-TACI (L/H) CAR T cells were evaluated for their capabilities to bind to soluble TACI (sTACI), soluble BCMA (sBCMA), and soluble APRIL (sAPRIL) was determined. T cells were washed 4 times in PBS 4% BSA, and incubated with labeled protein on ice at 4° C. for 40 min. After incubation, cells were washed twice with FACS buffer and flow cytometry was performed gating on live, CAR T cells to calculate protein binding. As evident in FIG. 12A, anti-TACI (L/H) CAR T cells have higher binding efficiency to soluble TACI than anti-TACI (H/L) CAR T cells.

B1: Anti-TACI (L/H) CAR expressed on T cells (other)
chain: DIVLTQSPASLAVSLGQRATISCRASESVDYYGMSLMNWFQQKPGQPPKLVIYAASNQGSGVPARFSGSGSGTDFRLNIHPLEEDDTGMYFCQQSKEAPPTFGGGTKLEIKGGGGSGGGGSGGGGSGGGGSEVQLQQSGPELVKPGASVKISCKTSGYTFTESTIHWVKQSHGKSLEWIGGISPNNGGSPFNQKFKGKATLTVDKSSSTVYMELRSLSSEDSAVYYCAKWVRGAMDFWGQGTSVTVSSTTTPAPRPPTPAPTIASQPLSLRPEACRPAAGGAVHTRGLDFACDIYIWAPLAGTCGVLLLSLVITLYCKRGRKKLLYIFKQPFMRPVQTTQEEDGCSCRFPEEEEGGCELRVKFSRSADAPAYQQGQNQLYNELNLGRREEYDVLDKRRGRDPEMGGKPRRKNPQEGLYNELQKDKMAEAYSEIGMKGERRRGKGHDGLYQGLSTATKDTYDALHMQALPPR
notes: Chimeric antigen receptor: anti-TACI scFv VL-(G4S)4-VH, CD8 hinge/TM, 4-1BB, CD3zeta; The vector also expresses mCherry; also called Anti-TACI CAR (L-H)
EC50 (read off the curve) [1]: ~10 nM | EC50 (read off the curve) [2]: ~2 nM | EC50 (read off the curve) [3]: ~10 nM | EC50 (read off the curve) [4]: ~2 nM | binding result (soluble BCMA, labeled): no binding (tested: 1000 ng)
